Data published in patent US20230093594A1, “PANTETHENOYLCYSTEINE DERIVATIVES AND USES THEREOF” (Comet Therapeutics, Inc., priority 2019, published 2023).
The name of at least one read-out is uncertain.

Tested on: HepG2 cells
Test: Glucose uptake Glo assay
Assay type: cell-based
Conditions: 10 and 50 μM

For `COC(=O)CCC(=O)SC[C@H](NC(=O)CCNC(=O)[C@H](O)C(C)(C)CO)C(=O)O` [Compound 7, (2R)-2-[3-[(2R)-2,4-dihydroxy-3,3-dimethylbutanamido]propanamido]-3-[(4-methoxy-4-oxobutanoyl)sulfanyl]propanoic acid], which “% increase in Glucose Uptake” value is on record?
The value was ≥10%.

`COC(=O)CCC(=O)SC[C@H](NC(=O)CCNC(=O)[C@H](O)C(C)(C)CO)C(=O)OC` [Compound 8, methyl 4-[[(2R)-2-[3-[(2R)-2,4-dihydroxy-3,3-dimethylbutanamido]propanamido]-3-methoxy-3-oxopropyl]sulfanyl]-4-oxobutanoate] was tested. Which “% increase in Glucose Uptake” value did it give?
The value was ≥10%.

Which “% increase in Glucose Uptake” value does the source give for `CC(C)(CO)[C@@H](O)C(=O)NCCC(=O)N[C@@H](CSC(=O)CCCN)C(=O)O` [Compound 71, (2R)-3-[(4-aminobutanoyl)sulfanyl]-2-[3-[(2R)-2,4-dihydroxy-3,3-dimethylbutanamido]propanamido]propanoic acid] here?
Its value is ≥10%.

How did the “% increase in Glucose Uptake” value turn out when `COC(=O)[C@H](CSC(=O)CCCN)NC(=O)CCNC(=O)[C@H](O)C(C)(C)CO` [Compound 72, methyl (2R)-3-[(4-aminobutanoyl)sulfanyl]-2-[3-[(2R)-2,4-dihydroxy-3,3-dimethylbutanamido]propanamido]propanoate] was run?
Its value is ≥10%.

Which “% increase in Glucose Uptake” value does the source give for `CC(=O)NCCCC(=O)SC[C@H](NC(=O)CCNC(=O)[C@H](O)C(C)(C)CO)C(=O)O` [Compound 215, (2R)-2-[3-[(2R)-2,4-dihydroxy-3,3-dimethylbutanamido]propanamido]-3-[(4-acetamidobutanoyl)sulfanyl]propanoic acid] here?
The value was ≥10%.

`COC(=O)[C@H](CSC(=O)CCCNC(C)=O)NC(=O)CCNC(=O)[C@H](O)C(C)(C)CO` [Compound 216, methyl (2R)-2-[3-[(2R)-2,4-dihydroxy-3,3-dimethylbutanamido]propanamido]-3-[(4-acetamidobutanoyl)sulfanyl]propanoate] was tested. Which “% increase in Glucose Uptake” value did it give?
Its value is ≥10%.

Which “% increase in Glucose Uptake” value does the source give for `COC(=O)[C@H](CSC(=O)CCCO)NC(=O)CCNC(=O)[C@H](O)C(C)(C)CO` [Compound 697, methyl (2R)-2-[3-[(2R)-2,4-dihydroxy-3,3-dimethylbutanamido]propanamido]-3-[(4-hydroxybutanoyl)sulfanyl]propanoate] here?
The value was ≥10%.

For `COC(=O)[C@H](CSC(=O)CCCOC(C)=O)NC(=O)CCNC(=O)[C@H](O)C(C)(C)CO` [Compound 698, methyl (2R)-3-[[4-(acetyloxy)butanoyl]sulfanyl]-2-[3-[(2R)-2,4-dihydroxy-3,3-dimethylbutanamido]propanamido]propanoate], which “% increase in Glucose Uptake” value is on record?
The value was ≥10%.

`CC(=O)OCCCC(=O)SC[C@H](NC(=O)CCNC(=O)[C@H](O)C(C)(C)CO)C(=O)O` [Compound 699, (2R)-3-[[4-(acetyloxy)butanoyl]sulfanyl]-2-[3-[(2R)-2,4-dihydroxy-3,3-dimethylbutanamido]propanamido]propanoic acid] was tested. Which “% increase in Glucose Uptake” value did it give?
Its value is ≥10%.
